Values from PubChem BioAssay AID504791 (Drosophila RNAi Screening Center, 2011).
In all, the deposit lists about 23,000 reagents; this is a random part of those with a known target gene and a result. In the full data, 199 (0.86%) are marked active. 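Plate-scaled ratios behind the calls are not deposited; printed light signals are raw; many rows marked increased or decreased are still called inactive.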 Not stated in the record: the direction of the score.

- Aim: 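Genes of the fly required for silencing by miRNA, siRNA or endo-siRNA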 (primary screen)
- System: Drosophila S2-derived reporter cells
- Reagent: long dsRNA against Drosophila genes, about 150-250 ng dsRNA per well (siRNA assay); about 80-120 ng (miRNA assay)
- Duration: about 5 days (siRNA assay); about 4 days (miRNA assay)
- Conditions: copper sulfate induction of reporters: 25 µM (siRNA assay); 200 mM stated (miRNA assay), 1-2 days before reading
- Read-out: 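Dual luciferase assay: Renilla to firefly signal ratio in each well, scaled to the mean ratio of its plate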
- Call rule: 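a well was a first-pass pick when its plate-scaled ratio rose above 1.5 (siRNA assay) or 1.6 (miRNA assay), or dropped below 0.6; a gene counted only if two separate dsRNAs agreed on retest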

target | dsRNA | stable assay Renilla, run 1 (luminescence) | stable assay firefly, run 1 (luminescence) | outcome
CG15262 | DRSC01975 | 8046 | 4.76e5 | inactive
CG18745 | DRSC15382 | 7498 | 4.16e5 | inactive
CG8907 | DRSC16453 | 8491 | 3.40e5 | inactive
galectin | DRSC00305 | 9129 | 6.64e5 | inactive
Spase22-23 (Spase 22/23-subunit) | DRSC15857 | 7014 | 3.45e5 | inactive
Hmgs (HMG Coenzyme A synthase) | DRSC06866 | 6690 | 2.92e5 | inactive
Dgp-1 | DRSC07400 | 5644 | 3.21e5 | inactive
Cog1 (Component of oligomeric golgi complex 1) | DRSC15661 | 6948 | 3.90e5 | inactive
CG15916 | DRSC19740 | 5411 | 3.62e5 | inactive
CG14545 | DRSC14889 | 7102 | 3.58e5 | inactive
CG7365 | DRSC10824 | 11152 | 4.27e5 | inactive

Limited to “stable assay firefly, run 1 (luminescence)” (3 entries from above):
Dgp-1 [DRSC07400]	3.21e5
Cog1 (Component of oligomeric golgi complex 1) [DRSC15661]	3.90e5
CG15916 [DRSC19740]	3.62e5

The results go on:
target | dsRNA | stable assay Renilla, run 1 (luminescence) | stable assay firefly, run 1 (luminescence) | outcome
pyd (polychaetoid) | DRSC12712 | 6615 | 4.81e5 | inactive
pyd (polychaetoid) | DRSC14387 | 7591 | 4.26e5 | inactive
pyd (polychaetoid) | DRSC14445 | 6759 | 3.58e5 | inactive
pyd (polychaetoid) | DRSC14509 | 6726 | 3.82e5 | inactive
pyd (polychaetoid) | DRSC16547 | 8607 | 4.71e5 | inactive
pyd (polychaetoid) | DRSC16548 | 5546 | 2.88e5 | inactive
pyd (polychaetoid) | DRSC17041 | 6830 | 3.61e5 | inactive
pyd (polychaetoid) | DRSC21523 | 9114 | 4.33e5 | inactive
pyd (polychaetoid) | DRSC23116 | 3428 | 3.37e5 | inactive
Acsf3 (Acyl-CoA synthetase family member 3) | DRSC18146 | 5556 | 3.06e5 | inactive
Ack (Activated Cdc42 kinase) | DRSC08135 | 7222 | 3.31e5 | inactive
sphinx1 | DRSC10993 | 6846 | 4.99e5 | inactive
Tep1 (Thioester-containing protein 1) | DRSC03450 | 6466 | 3.52e5 | inactive
PolA2 (DNA polymerase alpha subunit 2) | DRSC16641 | 6778 | 3.97e5 | inactive
rdog (red dog mine) | DRSC14431 | 7199 | 4.94e5 | inactive
tinc (tincar) | DRSC14798 | 6320 | 4.46e5 | inactive
tinc (tincar) | DRSC14799 | 7953 | 4.62e5 | inactive
tinc (tincar) | DRSC16308 | 8079 | 3.37e5 | inactive
tinc (tincar) | DRSC16309 | 7771 | 5.12e5 | inactive
CG1545 | DRSC21532 | 10337 | 4.89e5 | inactive
S (Star) | DRSC00785 | 5579 | 2.68e5 | inactive
CG1773 | DRSC06688 | 7538 | 3.87e5 | inactive
Inos (myo-inositol-1-phosphate synthase) | DRSC07655 | 6882 | 3.74e5 | inactive
